{
  "source": "patent US20240252516A1",
  "about": "“COMBINATION BPH THERAPY WITH FEXAPOTIDE TRIFLUTATE, A 5-ARI, AND AN ALPHA BLOCKER” (Nymox Corporation, priority 2023, published 2024)",
  "origin": "cited, not measured here",
  "test_system": "5α-reductase",
  "details": "type II isoform predominates; cited from earlier work",
  "note": "Some entries share one result that the patent states for a list of compounds.",
  "data": [
    {"smiles": "CC(C)(C)NC(=O)[C@H]1CC[C@H]2[C@@H]3CC[C@H]4NC(=O)C=C[C@]4(C)[C@H]3CC[C@]12C", "note": "[finasteride]", "values": [
      {"measurement": "decrease of levels of DHT in the prostate gland", "result": "85 to 90", "unit": "%"}
    ]}
  ]
}
